Record: PubChem BioAssay AID686938 (Drosophila RNAi Screening Center, 2013)
In all, the deposit lists about 23,000 reagents; below is an unselected part of those with a known target gene and a result. Over the whole deposit, 75 (0.33%) were called active. 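Raw plate signals without normalisation; calls rest on plate z-scores that were not deposited; ratio present for only 364 wells.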 A number with no mark means an inactive call. A plus sign joins genes that one reagent is predicted to hit. Not stated in the record: the dose of the treatment.

Screen: 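Knock-downs reducing store-operated calcium influx in Drosophila cells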 (primary screen)
Cell system: Drosophila S2R+ cells
Reagent: long dsRNA against Drosophila genes, about 0.25 µg dsRNA per well, roughly 10,000 cells
Timing: 5 days of knock-down before the calcium assay
Treatment: thapsigargin (SERCA pump blocker) to empty calcium stores; entry signal taken 4 min after adding it
Detection: 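Per-well fluo-4 fluorescence in two replicates, unnormalised, measured in resting cells and 4 min after store depletion by the SERCA blocker thapsigargin; ratio of the two present in few wells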
Scale: calcium entry signal: higher = stronger calcium signal after store depletion; entry to resting ratio: higher = more calcium entry relative to resting level; resting calcium signal: higher = higher resting calcium signal
Call rule: 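Called when the plate z-score of the entry-to-rest ratio, mean of duplicates, falls below −3; wells with low overall dye signal (Fmax z below −2) or more than five off-targets excluded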
Meaning of the calls: active = strongly reduced calcium entry; inactive = no strong reduction

gene	DRSC id	calcium entry signal, replicate 1 (fluorescence units)	calcium entry signal, replicate 2 (fluorescence units)	entry to resting ratio	resting calcium signal, replicate 1 (fluorescence units)	resting calcium signal, replicate 2 (fluorescence units)
CG5521	DRSC15828	3.07e7	5.02e7		1.51e7	2.05e7
CG10086	DRSC14183	3.89e7	3.73e7		1.99e7	1.68e7
CG31740	DRSC01619	3.53e7	3.05e7		1.86e7	1.62e7
Prat2	DRSC09692	5.22e7	3.88e7		3.53e7	1.74e7
CG13814 (retired record)	DRSC10069	2.10e7	3.46e7		1.04e7	1.53e7
egr	DRSC06233	3.19e7	3.46e7		1.60e7	1.69e7
Ir54a + sub	DRSC06459	3.94e7	5.02e7		1.90e7	2.47e7
CG33465	DRSC05587	4.81e7	3.59e7		4.33e7	1.74e7
CG33502 + CG32857 + CG32500	DRSC20817	4.36e7	3.59e7		1.89e7	1.53e7
CG33502 + CG32857 + CG32500	DRSC21038	4.53e7	4.32e7		2.09e7	1.65e7
Ttc30	DRSC02818	5.16e7	3.00e7		2.27e7	1.59e7
Mal-A6	DRSC07233	3.92e7	3.81e7		1.81e7	1.70e7
omd	DRSC16507	2.01e7	2.54e7		1.04e7	1.35e7
CG5359	DRSC15780	2.15e7	2.59e7		1.37e7	1.34e7
CG12935 + Nop10	DRSC07025	4.20e7	4.14e7		2.11e7	1.66e7
Mvl	DRSC16752	5.03e7	4.09e7		2.32e7	1.81e7
Lipt1	DRSC05600	1.60e7	4.27e7		7.53e6	2.41e7
eIF2Bbeta	DRSC18465	3.96e7	4.33e7	2.3	1.74e7	1.60e7
S-Lap8	DRSC06870	3.78e7	4.63e7		1.77e7	2.36e7
S-Lap8	DRSC21372	3.73e7	4.24e7		2.04e7	1.81e7
betaNACtes5	DRSC19100	2.38e7	3.01e7		1.19e7	1.41e7
CG34242	DRSC09185	3.70e7	3.64e7		1.99e7	1.89e7

Continued; the last 8 above are carried over.
gene	DRSC id	calcium entry signal, replicate 1 (fluorescence units)	calcium entry signal, replicate 2 (fluorescence units)	entry to resting ratio	resting calcium signal, replicate 1 (fluorescence units)	resting calcium signal, replicate 2 (fluorescence units)
CG12935 + Nop10	DRSC07025	4.20e7	4.14e7		2.11e7	1.66e7
Mvl	DRSC16752	5.03e7	4.09e7		2.32e7	1.81e7
Lipt1	DRSC05600	1.60e7	4.27e7		7.53e6	2.41e7
eIF2Bbeta	DRSC18465	3.96e7	4.33e7	2.3	1.74e7	1.60e7
S-Lap8	DRSC06870	3.78e7	4.63e7		1.77e7	2.36e7
S-Lap8	DRSC21372	3.73e7	4.24e7		2.04e7	1.81e7
betaNACtes5	DRSC19100	2.38e7	3.01e7		1.19e7	1.41e7
CG34242	DRSC09185	3.70e7	3.64e7		1.99e7	1.89e7
lncRNA:roX1	DRSC21884	2.76e7	4.02e7		1.37e7	1.99e7
snsl	DRSC00543	3.40e7	3.59e7		1.62e7	1.66e7
CG14500	DRSC06471	3.72e7	4.53e7		1.83e7	2.05e7
cv-2	DRSC03861	3.08e7	5.47e7		1.53e7	2.14e7
cv-2	DRSC04261	4.66e7	5.20e7		2.25e7	2.20e7
CG8460	DRSC03090	5.03e7			3.08e7	
dom	DRSC04558	3.41e7 (active)			2.60e7	
dom	DRSC04559	2.75e7	3.53e7		1.62e7	2.03e7
GstE6	DRSC06676	6.11e7	5.07e7		2.52e7	2.46e7
CG31111	DRSC14649	3.31e7	2.41e7		1.71e7	1.40e7
CG9641	DRSC00721	4.04e7			2.07e7	
CG9636	DRSC16529	2.47e7	3.28e7		1.16e7	1.43e7
CG6800	DRSC16119	3.26e7	3.61e7		4.51e7	1.78e7
pxb	DRSC13110	3.29e7	4.87e7		1.57e7	2.16e7
pxb	DRSC14996	2.38e7	3.17e7		1.20e7	1.57e7
pxb	DRSC14997	2.26e7	3.86e7		1.19e7	5.39e7
pxb	DRSC22225	4.75e7	3.73e7		2.80e7	1.78e7
CG14301	DRSC14780	3.84e7	4.83e7		5.29e7	2.06e7
CG14540	DRSC14884	4.62e7	6.95e7		2.40e7	3.02e7
so	DRSC07693	4.94e7	6.90e7		2.34e7	2.81e7
so	DRSC23096	3.98e7	4.12e7		1.76e7	1.69e7
PAN3	DRSC08190	3.54e7	2.77e7		2.54e7	1.19e7
aqrs	DRSC14724	4.04e7	5.84e7		2.10e7	2.43e7
CG42272	DRSC08766	4.41e7	4.98e7		2.52e7	2.20e7
CG42272	DRSC22502	5.09e7	3.04e7		2.67e7	1.68e7
CG17199	DRSC15192	3.54e7	3.90e7		4.61e7	1.78e7
CG33490	DRSC10587	4.38e7	2.94e7		2.83e7	1.30e7
acj6	DRSC20304	2.87e7	3.46e7		1.38e7	1.67e7
CG15203	DRSC19650	3.19e7	4.77e7		1.60e7	2.15e7
BBS4	DRSC06352	5.38e7	3.56e7		2.47e7	1.78e7
Spn28B	DRSC02982	3.69e7	5.80e7		1.95e7	2.47e7
CG8910	DRSC07414	3.85e7	5.98e7		1.64e7	2.49e7
CG13855	DRSC14705	4.26e7	4.61e7		5.15e7	1.98e7
BicD	DRSC02006	4.41e7			2.20e7	
Mkk4	DRSC16739	3.77e7	3.73e7		1.89e7	1.75e7
CG14505	DRSC06476	4.75e7	5.88e7		2.12e7	2.79e7
